{"source": "PubChem BioAssay AID1347075", "about": "(National Center for Advancing Translational Sciences (NCATS), 2019)", "note": "Several values for one entry are separate records, joined by “and”; a condition that tells them apart may be missing. Equal values may be shown once. Hit rate of the full screen: of about 400,000 compounds, about 5,500 (1.4%) were called active. The inconclusive results got no clear call from the source; some entries with a clear call stand among them for comparison. Calls come from the whole dose curve; as a rule, active = well fitted cell-killing curve with a large enough effect; inconclusive = small, poorly fitted or top-dose-only effect, or effect the other way; inactive = flat fitted curve, though single readings scatter. Potencies beside an inconclusive call are fits to weak or partial responses and may not hold up. % is set by controls: 0 for no effect and ±100 for the full control effect; potency is the fitted concentration of half-maximal effect."}
{"experiment": "qHTS assay for MDR1-selective chemotherapeutics: Primary screen using the parental adenocarcinoma cell KB-3-1; note: nearly all actives have a fitted effect of over 60% in size", "settings": "KB-3-1 viability, CellTiter-Glo ATP luminescence, 72 h; activity change, negative = cytotoxic: at 46.1 µM (top of the series)", "method_in_brief": "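KB-3-1 cells, DMEM (no phenol red) + 10% FBS; compound by pin transfer, 72 h, 37 °C. Readout: CellTiter-Glo luminescence after 10 min. Data normalized, curve-fitted.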"}
{"compound": "Cc1cc(NCCCN(C)C)n2c(nc3ccccc32)c1C#N", "Potency": "inconclusive: 23.1 µM [cytotoxic, single point]"}
{"compound": "COC(=O)c1ccc(C(=O)OC)c(NC(=S)N2CCN(c3cc(Cl)ccc3C)CC2)c1", "Potency": "inconclusive: 29.1 µM [cytotoxic, single point]"}
{"compound": "Nc1nc(N)nc(-c2cc(C(F)(F)F)ccc2Cl)n1", "Potency": "inconclusive: 25.9 µM [rising, single point]"}
{"compound": "CN(C)CC(O)COC(c1ccccc1)c1ccccc1", "note": "(stereo unspecified)", "Potency": "inactive"}
{"compound": "CCC[C@H]1CN(c2ccc(Br)cc2)C(=O)[C@@H]1CC(=O)Nc1ccccc1", "Potency": "inconclusive: 18.4 µM [cytotoxic, single point]"}
{"compound": "Cc1ccc(S(=O)(=O)N(CCCO)CC(O)CON=C2c3ccccc3-c3ccccc32)cc1", "note": "(stereo unspecified)", "Potency": "inconclusive: 18.4 µM [cytotoxic, single point]"}
{"compound": "O=[N+]([O-])c1cccc(C=NNc2ccccc2)c1", "Potency": "inconclusive: 16.4 µM [cytotoxic, partial curve]"}
{"compound": "COc1ccc([C@@H]2C[C@H]3[C@@H](CN2S(=O)(=O)c2ccccc2)C(=O)C[C@@H](c2ccccc2F)N3S(=O)(=O)c2ccc(C)cc2)cc1", "Potency": "inactive"}
{"compound": "Cc1ccc(-c2c[n+]3c(n2-c2ccccc2)CCC3)cc1", "Potency": "active: 1.3 µM"}
{"compound": "COc1ccc(NC(=O)Nc2cnccn2)c(OC)c1", "Potency": "active: 5.17 µM"}
{"compound": "CN1CCC(N(C)C(=S)Nc2ccc(SC(F)F)cc2)CC1", "Potency": "inconclusive: 29.1 µM [cytotoxic, single point]"}
{"compound": "CC1CC(C)CN(C(=S)Nc2ccc(OC(F)F)cc2)C1", "note": "(stereo unspecified)", "Potency": "inactive"}
{"compound": "CCOc1ccc(NC(=O)C(=O)NCCN2CCN(S(=O)(=O)c3ccccc3)CC2)cc1", "Potency": "inactive"}
{"compound": "O=C(Nc1ccc(N2CCOCC2)cc1)c1cccc(S(=O)(=O)N2CCC(Cc3ccccc3)CC2)c1", "Potency": "inactive"}
{"compound": "O=C(O)c1ccc(NC2=Nc3cccc4cccc2c34)cc1", "Potency": "inconclusive: 29.1 µM [cytotoxic, single point]"}
{"compound": "COc1cc(C(=O)NC2CCN(C)CC2)ccc1Nc1ncc2c(n1)N(CCc1ccccc1)CCC(=O)N2C", "Potency": "inconclusive: 0.651 µM [cytotoxic, full curve, poor fit]"}
{"compound": "CCc1ccc(CNC(=O)Cc2ccc(NC(=O)C3=C(C)OCCS3)cc2)cc1", "Potency": "active: 1.16 µM"}
{"compound": "CCOC(=O)C(CC)n1nc(C)n2c(cc3sccc32)c1=O", "note": "(stereo unspecified)", "activity change, negative = cytotoxic": "inconclusive: -5.85%"}
{"compound": "COc1ccc2c(c1)c(=O)c(C(=O)c1ccccc1)cn2Cc1ccc(C)cc1", "Potency": "inconclusive: 29.1 µM [cytotoxic, single point]"}
{"compound": "Cc1ccc(/C=C/C(=O)c2c(C)nc3ccccn23)cc1", "Potency": "active: 18.4 µM"}
{"compound": "Cc1[nH]n2c(=O)cc(C(C)C)nc2c1-c1ccccc1", "Potency": "inconclusive: 29.1 µM [cytotoxic, single point]"}
{"compound": "CN(Cc1ccccc1)c1nc2c(c(=O)[nH]c(=O)n2C)n1CCCSc1ncccn1", "Potency": "inconclusive: 29.1 µM [rising, single point]"}
{"compound": "CCN(CC)c1ccc(NC(=O)Cn2c(C)c3cnn(-c4ccccc4)c(=O)c3c2C)c(C)c1", "Potency": "inactive"}
{"compound": "Cc1ccc2[nH]cc(CCCN3C(=O)c4ccccc4C3=O)c2c1", "Potency": "inconclusive: 32.6 µM [cytotoxic, single point]"}
{"compound": "Cc1cccc(NC(=O)CSc2nnc(-c3ccc(S(=O)(=O)N4CCCC4)cc3)o2)c1", "Potency": "inconclusive: 18.4 µM [rising, single point]"}
{"compound": "Cc1ccc(NC2=CC(=O)C(=O)c3ccccc32)cc1", "Potency": "inconclusive: 29.1 µM [cytotoxic, single point]"}
{"compound": "O=C(CSCc1cccc(Cl)c1)Nc1ccccc1-c1ccccc1", "Potency": "inconclusive: 0.0259 µM [cytotoxic, full curve]"}
{"compound": "NC(=O)[C@H]1CC2(CC(c3cccc(NC(=O)COc4ccc(Cl)cc4)c3)=NO2)CN1C(=O)c1ccccc1C(=O)c1ccccc1", "note": "(stereo partly specified)", "Potency": "active: 20.6 µM"}
{"compound": "COC(=O)c1c(-c2cccs2)csc1NC(=O)c1cc(OC)cc(OC)c1", "Potency": "inactive"}
{"compound": "COc1ccc(C(=O)CCC(=O)Nc2ccc(N3CCCCC3)cc2)cc1OC", "Potency": "inactive"}
{"compound": "Cc1ccc(C(=O)Nc2nc3ccccc3c(=O)s2)cc1", "Potency": "inactive"}
{"compound": "Cc1ccc(N(CN2CCCC2=O)C(=O)c2ccccc2)cc1", "Potency": "inconclusive: 23.1 µM [cytotoxic, single point]"}
{"compound": "COc1ccc(NC(=O)CSc2nc3ccsc3c(=O)n2CCCCCC(=O)O)cc1", "Potency": "inconclusive: 29.1 µM [rising, single point]"}
{"compound": "Cc1ccc(-c2csc3nc(SCC(=O)N(C)C)n(Cc4ccccc4)c(=O)c23)cc1", "Potency": "inconclusive: 23.1 µM [cytotoxic, single point]"}
{"compound": "Cc1nc(N2CCC(C(N)=O)CC2)c2c(-c3cccs3)csc2n1", "Potency": "inconclusive: 29.1 µM [rising, single point]"}
{"compound": "COc1cccc(CNC(=O)Nc2cc(C(=O)NCc3cccc(F)c3)ccc2N2CCCC2)c1", "Potency": "inconclusive: 10.3 µM [cytotoxic, partial curve, poor fit]"}
{"compound": "COc1ccccc1-c1c(-c2ccc(O)cc2O)n[nH]c1C(F)(F)F", "Potency": "inactive"}
{"compound": "COc1ccccc1-c1nn(Cc2ccccc2)cc1C(=O)N1CCN(c2ncccn2)CC1", "Potency": "inconclusive: 20.6 µM [cytotoxic, single point]"}
{"compound": "Fc1ccccc1-c1cc2cc3c(cc2cn1)OCO3", "Potency": "inconclusive: 18.4 µM [cytotoxic, single point]"}
{"compound": "CCOC(=O)N1CCC(NC(=O)c2oc3c(C)c(C)ccc3c2C)CC1", "Potency": "inactive"}
{"compound": "O=C(C[n+]1cccc(Cl)c1)c1ccc(O)c(O)c1", "Potency": "inconclusive: 29.1 µM [rising, single point]"}
{"compound": "Cc1c(C(=O)NCc2ccccn2)oc2ccc(S(=O)(=O)N3CCOCC3)cc12", "Potency": "inactive"}
{"compound": "CC1(C)Cc2c(sc(NC(=O)c3ccc4ncsc4c3)c2C(N)=O)C(C)(C)N1", "Potency": "inconclusive: 29.1 µM [cytotoxic, single point]"}
{"compound": "CCOC(=O)CSC1=NC(=O)/C(=C\\c2ccc(OC(C)=O)cc2)S1", "Potency": "inconclusive: 29.1 µM [cytotoxic, single point]"}
{"compound": "Cc1nc(-c2cccc(NC(=O)c3ccc(Cl)c(S(=O)(=O)N4CCCC4)c3)c2)cs1", "Potency": "inconclusive: 29.1 µM [cytotoxic, partial curve, poor fit]"}
{"compound": "O=C1C2CC=CCC2C(=O)N1c1ccc(Cc2ccncc2)cc1", "note": "(stereo unspecified)", "Potency": "inconclusive: 13 µM [cytotoxic, partial curve, poor fit]"}
{"compound": "CCCCn1c(N)c(N(CC(C)C)C(=O)CSc2ccc([N+](=O)[O-])cc2)c(=O)[nH]c1=O", "Potency": "inconclusive: 25.9 µM [rising, single point]"}
{"compound": "CCCCN(C(=O)CSCC(=O)Nc1ccc(C)cc1)c1c(N)n(CCCC)c(=O)[nH]c1=O", "Potency": "inactive"}
{"compound": "CCN1CCN(S(=O)(=O)c2ccc(Oc3ccccc3OC)cc2)CC1", "Potency": "inconclusive: 14.6 µM [cytotoxic, partial curve, poor fit]"}
{"compound": "COc1ccc2c(C)c(CC(=O)NCCc3ccccc3)c(=O)oc2c1OC", "Potency": "inactive"}
{"compound": "COc1ccccc1N1CCN(C(c2cc3ccc(C)cc3[nH]c2=O)c2nnnn2C2CCCC2)CC1", "note": "(stereo unspecified)", "Potency": "inconclusive: 29.1 µM [cytotoxic, single point]"}
{"compound": "CCCCCCCOC(=O)C[N+](C)(C)CCOC1CC2CCC1(C)C2(C)C", "note": "(stereo unspecified)", "Potency": "active: 20.6 µM"}
{"compound": "C=CCn1c(C)cc(C(=O)CSc2nnc(NCc3ccccc3)s2)c1C", "Potency": "active: 13 µM"}
{"compound": "CC1(C(=O)NCc2ccco2)Cc2c(-c3ccc4c(c3)OCO4)ccnc2O1", "note": "(stereo unspecified)", "Potency": "active: 2.59 µM"}
{"compound": "COc1ccc(-n2cc(CNCCc3cnc[nH]3)c(-c3cccc(F)c3)n2)cc1", "Potency": "inconclusive: 29.1 µM [cytotoxic, single point]"}
{"compound": "Cc1cc(C)n2nc(-c3ccccc3)cc2n1", "Potency": "inconclusive: 29.1 µM [cytotoxic, single point]"}
{"compound": "CCc1nnc(NC(=O)c2nc(S(=O)(=O)Cc3ccccc3)ncc2Cl)s1", "Potency": "active: 23.1 µM"}
{"compound": "COc1cccc(-c2cnc(OC(C)(C)C)nc2OC(C)(C)C)c1", "Potency": "inconclusive: 29.1 µM [cytotoxic, single point]"}
{"compound": "COc1ccc(NS(=O)(=O)c2cc(NC(=O)c3ccc(=O)[nH]n3)ccc2C)cc1", "Potency": "inconclusive: 20.6 µM [cytotoxic, single point]"}
{"compound": "N#Cc1ccc(CSc2nnc(-c3cccnc3)n2-c2ccccc2)cc1", "activity change, negative = cytotoxic": "inconclusive: 8.71%"}
{"compound": "COCc1cc(=O)[nH]c(Nc2nc3ccc(C)cc3o2)n1", "Potency": "active: 20.6 µM"}
{"compound": "CCCCSCc1nc2nc(Cl)c(Cl)nc2[nH]1", "Potency": "inconclusive: 29.1 µM [cytotoxic, single point]"}
{"compound": "O=C(O)/C=C/c1cccc(NS(=O)(=O)c2ccccc2)c1", "Potency": "inactive"}
{"compound": "O=C(Nc1ccc(N2CCOCC2)cc1)c1ccc(Cl)c(S(=O)(=O)N2CCCC2)c1", "Potency": "inconclusive: 14.6 µM [cytotoxic, partial curve]"}
{"compound": "CC(=O)Oc1ccccc1C(=O)NC(C)CCc1ccccc1", "note": "(stereo unspecified)", "Potency": "inactive"}
{"compound": "NC1=NC(=O)C(CC(=O)Nc2ccc3c(c2)OCO3)S1", "note": "(stereo unspecified)", "Potency": "inactive"}
{"compound": "Clc1ccccc1Nc1nc(NCC2CC2)nc2ccsc12", "activity change, negative = cytotoxic": "inconclusive: -27.7%"}
{"compound": "COc1cc(-c2noc(C)c2-c2ccc(N(C)C)nc2)cc(OC)c1OC", "Potency": "active: 23.1 nM and active: 6.5 nM"}
{"compound": "COc1cc(C)c(CN2CCC(Oc3ccc(C(=O)N4CCCC4)cc3)CC2)cc1C", "Potency": "inconclusive: 20.6 µM [cytotoxic, single point]"}
{"compound": "C=CCNC(=S)/N=c1/ccccn1Cc1ccccc1", "Potency": "inconclusive: 29.1 µM [cytotoxic, single point]"}
{"compound": "Cc1ccc(Cl)cc1N1CCN(C(=O)Cn2nc(C)n3c(cc4sccc43)c2=O)CC1", "Potency": "inactive"}
